Binding signal data for 42 sequences are collected here from article PMC7819943, “Rice protein-binding microarrays: a tool to detect cis-acting elements near promoter regions in rice”.

Protein sequences, listed by entry. Tags and fused reporters are not part of them.
UniProt Q0JBA9, entry or part of it: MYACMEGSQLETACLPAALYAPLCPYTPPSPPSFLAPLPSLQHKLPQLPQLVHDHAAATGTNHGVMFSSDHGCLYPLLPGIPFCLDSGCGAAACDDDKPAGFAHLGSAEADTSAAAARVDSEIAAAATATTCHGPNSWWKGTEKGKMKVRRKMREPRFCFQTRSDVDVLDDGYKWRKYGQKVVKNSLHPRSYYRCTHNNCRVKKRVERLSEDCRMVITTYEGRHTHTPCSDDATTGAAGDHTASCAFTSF

The list shows a part of the results.

The assay concerns the target OsWRKY34 (Oryza sativa, UniProt Q0JBA9 1-250). The assay can be described thus: protein-binding microarray (RPBM); PBS, 2% BSA, 51.3 ng/ul salmon testes DNA, 50 uM zinc acetate, 200 nM TF, 25 C, 1 h; high values mean tight binding. The following applies: protein: recombinant; tags: N-terminal polyhistidine and DsRed monomer fusion (pET32a); label: CyDye5-dUTP incorporated in the synthesized complementary strand; 3' TTTTT single-stranded linker to array surface; dsDNA, one strand shown. In short, it runs like this:
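The binding signal for each feature is its fluorescence intensity in arbitrary units. An Axon 4000B scanner was used to read a custom Agilent array that had been made double-stranded with Cy5-dUTP primer extension, blocked with 2% BSA, incubated at 25 °C for 1 h with 200 nM protein in PBS, 2% BSA, salmon testes DNA and 50 µM zinc acetate, and washed. The protein was an N-terminal polyhistidine–DsRed transcription factor fusion from E. coli BL21-CodonPlus, purified on Ni–NTA.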
“TGATCTTTTGTTTCCTGCTTGGTATAGTATAAGCTCTCATCGGAGTCACCTAGTGCAG”: the binding signal is 8800 fluorescence intensity (a.u.).

With “CGAAGACACCGGAGCCACCACTCGCCGCCCGCCTATTTCACGGAGTCACCTAGTGCAG”, the binding signal was 10400 fluorescence intensity (a.u.).

Turning to “CAGTTTACCTGCGCCGCGGCCGCCACAGATTCACACCGCCCGGAGTCACCTAGTGCAG”, the binding signal is 8440 fluorescence intensity (a.u.).

As for “TGCCTCACCACCGGCGACACCATCATGGTGGCCTACAACACGGAGTCACCTAGTGCAG”, the binding signal is 8270 fluorescence intensity (a.u.).

Regarding “TCCCCACGTTGCATCCCGTCATCCCCATCGAGCGATCCCCCGGAGTCACCTAGTGCAG”, the binding signal was 9460 fluorescence intensity (a.u.).

“TGAAAAGAAACGGTCGCCATCACTGTCCTGAGATCTCATCCGGAGTCACCTAGTGCAG”: the binding signal is 9350 fluorescence intensity (a.u.).

On to “TTGGTTTGGTTGCTCCTCGCGCTGTTATTGGTTGCTCCTCCGGAGTCACCTAGTGCAG”, for which the binding signal was 19900 fluorescence intensity (a.u.).

For “CCGTTTTTCTTTCCTGTGGCTGCATACATCCCAAAATCAACGGAGTCACCTAGTGCAG”, the binding signal is 12200 fluorescence intensity (a.u.).

For the sequence “TCCCTTTTTTTCCCGTATGGATGCTAAACCCTAATCTATTCGGAGTCACCTAGTGCAG”, the binding signal was 9060 fluorescence intensity (a.u.).

For the sequence “GTGCATACATTCTTTCTTTTTTCCACTCTAGTAATTCATACGGAGTCACCTAGTGCAG”, the binding signal was 8550 fluorescence intensity (a.u.).

With “TGCACTTACATCTCAACCTGATCTATGTCCTTATGCACTTCGGAGTCACCTAGTGCAG”, the binding signal is 10200 fluorescence intensity (a.u.).

For the sequence “ACCCTTTGTTTTGGTTTGATTTTCAAATCTACATTTATACCGGAGTCACCTAGTGCAG”, the binding signal was 8120 fluorescence intensity (a.u.).

“ATTTTTGGTTTTCTGTCATCAGTCATCACCCTTCTCTTTTCGGAGTCACCTAGTGCAG”: the binding signal was 8820 fluorescence intensity (a.u.).

On to “CTGTCCTGTATAGCTATCTCATCTATCTCTTCCCATGCATCGGAGTCACCTAGTGCAG”, for which the binding signal was 10500 fluorescence intensity (a.u.).

Take “ACCAACCAGTACTTTTGCAATGCCAAAATTTTTGCCACCACGGAGTCACCTAGTGCAG”: the binding signal is 9040 fluorescence intensity (a.u.).

For “ATCTCTTGTGTTTTATGTGAACCAGTAATTCTTGTCCTTGCGGAGTCACCTAGTGCAG”, the binding signal was 9750 fluorescence intensity (a.u.).

On to “GTCAACACCACCAACGGACAGGGATATCTTTGCAAGTGCTCGGAGTCACCTAGTGCAG”, for which the binding signal was 9460 fluorescence intensity (a.u.).

As to “TCCCTTGCTGTTTCATTTCGTACGTACTCCGCGCTCGGGACGGAGTCACCTAGTGCAG”, the binding signal was 13400 fluorescence intensity (a.u.).

Turning to “GGCTCTGGACTCTGGTTGATCAACTCCCTAACTTTTTTTTCGGAGTCACCTAGTGCAG”, the binding signal is 10100 fluorescence intensity (a.u.).

On to “CCAATCTATCAATGCGGACATCTCGATATATATATATATACGGAGTCACCTAGTGCAG”, for which the binding signal is 8330 fluorescence intensity (a.u.).

With “GGTAGAGAGGGTTCTTGCTTTGCTTAGCTCCATTGTTTTTCGGAGTCACCTAGTGCAG”, the binding signal is 9130 fluorescence intensity (a.u.).

“TCGCTCTTCTCCGACAACCGCGTGCTGCTCCGGCAATTCTCGGAGTCACCTAGTGCAG”: the binding signal was 9290 fluorescence intensity (a.u.).

For the sequence “CGTTGATCATGCATACCTTTACATCTGTCATGAAACACATCGGAGTCACCTAGTGCAG”, the binding signal was 8850 fluorescence intensity (a.u.).

In the case of “CAGCATTGATCTGGTTTTCCATCGGAATTTGCAGCTTGTCCGGAGTCACCTAGTGCAG”, the binding signal is 8100 fluorescence intensity (a.u.).

Regarding “CCTGATGTGCTTGTAGGGCGGTGTTCTTGTGTGTGTGTGTCGGAGTCACCTAGTGCAG”, the binding signal was 9580 fluorescence intensity (a.u.).

On to “CCTATTTCGACTACTCTCTTTGTAATTTGTTCTTGTTATCCGGAGTCACCTAGTGCAG”, for which the binding signal is 9970 fluorescence intensity (a.u.).

Consider “GAACGTATTTCTTGCCTATATTATCTTTAATATTTTTTATCGGAGTCACCTAGTGCAG”, for which the binding signal was 8780 fluorescence intensity (a.u.).

For “TGCATACCCTCAATCATTTCCTTGTTTTATCTTCTTTCAGCGGAGTCACCTAGTGCAG”, the binding signal is 8350 fluorescence intensity (a.u.).

For the sequence “GCCTCACGTTTGCCAGTTGGGTTGGGACTTGGGATGGGCCCGGAGTCACCTAGTGCAG”, the binding signal is 10500 fluorescence intensity (a.u.).

For “CAAATACAACCAATCCATCGCCTCGTCTCCATATAAAACCCGGAGTCACCTAGTGCAG”, the binding signal was 10300 fluorescence intensity (a.u.).

Turning to “GGGCTGCTCCATTATATCTTGCCAATTGTTTTTCATTGTCCGGAGTCACCTAGTGCAG”, the binding signal was 14400 fluorescence intensity (a.u.).

Take “CCACCACCACCACCTCCGATCCGATCTGCTCCACCGCCACCGGAGTCACCTAGTGCAG”: the binding signal is 12500 fluorescence intensity (a.u.).

With “CCATGTCCTTTCCGCTAGTTGACCGTTAGTTGACTGTTAACGGAGTCACCTAGTGCAG”, the binding signal is 9680 fluorescence intensity (a.u.).

Turning to “GTCTGCTGGTGTTTTTCGCGCGATGAAAGCGTGGGGAAACCGGAGTCACCTAGTGCAG”, the binding signal was 9210 fluorescence intensity (a.u.).

Turning to “ATCATGTCGTCGTTGCGTCGTCATCGTTGTTCTTCGTCGACGGAGTCACCTAGTGCAG”, the binding signal is 9110 fluorescence intensity (a.u.).

Regarding “CGAGTTTGTCTTCTTTTCCCACTGAAGTAATGCTTTATACCGGAGTCACCTAGTGCAG”, the binding signal is 10400 fluorescence intensity (a.u.).

With “GGGCTAAGGGTTGTTGAGTCGGGTGTGTGGTGTATAAATCCGGAGTCACCTAGTGCAG”, the binding signal was 11200 fluorescence intensity (a.u.).

As for “AAGCTTCCTCACCTCTTTGCTTCCTCACCTTCTTGCCAGACGGAGTCACCTAGTGCAG”, the binding signal was 9330 fluorescence intensity (a.u.).

For “AACCAAGAAGCCAAAGCTTCCATTGATCACTCGCTCTGCTCGGAGTCACCTAGTGCAG”, the binding signal was 8380 fluorescence intensity (a.u.).

Take “CCCCGCGCCTGTTTTGGCCATCTATACCTACAACACGCGACGGAGTCACCTAGTGCAG”: the binding signal was 9040 fluorescence intensity (a.u.).

As for “GTTCCATACCCAACGTTTGACCGTCCGTCTTATTTGAAAACGGAGTCACCTAGTGCAG”, the binding signal is 9980 fluorescence intensity (a.u.).

Regarding “TTGCTTGCCTCCGTCCTGATCTCCACTGATTCATTGTGTTCGGAGTCACCTAGTGCAG”, the binding signal is 9030 fluorescence intensity (a.u.).
